Assay results as given in paper PMC12466236.
Results are given in words; binding and its absence hold for the method and conditions named. In cells and extracts the contact can be indirect. Some binding calls cover weakened binding; strength is not graded here.

Target: Ago1-FLAG-HA (human) (UniProt Q9UL18)
Assay: co-IP; anti-FLAG M2 IP of Ago1-FLAG-HA from nuclear extracts of transfected HEK-293T cells; IP buffer 20 mM Tris pH 7.3, 200 mM KCl, 0.2% Triton; overnight at 4 °C; without RNase treatment

- binding: binds
B1: Drosha, endogenous (enzyme, UniProt Q9NRR4 1-1374)
chain: MMQGNTCHRMSFHPGRGCPRGRGGHGARPSAPSFRPQNLRLLHPQQPPVQYQYEPPSAPSTTFSNSPAPNFLPPRPDFVPFPPPMPPSAQGPLPPCPIRPPFPNHQMRHPFPVPPCFPPMPPPMPCPNNPPVPGAPPGQGTFPFMMPPPSMPHPPPPPVMPQQVNYQYPPGYSHHNFPPPSFNSFQNNPSSFLPSANNSSSPHFRHLPPYPLPKAPSERRSPERLKHYDDHRHRDHSHGRGERHRSLDRRERGRSPDRRRQDSRYRSDYDRGRTPSRHRSYERSRERERERHRHRDNRRSPSLERSYKKEYKRSGRSYGLSVVPEPAGCTPELPGEIIKNTDSWAPPLEIVNHRSPSREKKRARWEEEKDRWSDNQSSGKDKNYTSIKEKEPEETMPDKNEEEEEELLKPVWIRCTHSENYYSSDPMDQVGDSTVVGTSRLRDLYDKFEEELGSRQEKAKAARPPWEPPKTKLDEDLESSSESECESDEDSTCSSSSDSEVFDVIAEIKRKKAHPDRLHDELWYNDPGQMNDGPLCKCSAKARRTGIRHSIYPGEEAIKPCRPMTNNAGRLFHYRITVSPPTNFLTDRPTVIEYDDHEYIFEGFSMFAHAPLTNIPLCKVIRFNIDYTIHFIEEMMPENFCVKGLELFSLFLFRDILELYDWNLKGPLFEDSPPCCPRFHFMPRFVRFLPDGGKEVLSMHQILLYLLRCSKALVPEEEIANMLQWEELEWQKYAEECKGMIVTNPGTKPSSVRIDQLDREQFNPDVITFPIIVHFGIRPAQLSYAGDPQYQKLWKSYVKLRHLLANSPKVKQTDKQKLAQREEALQKIRQKNTMRREVTVELSSQGFWKTGIRSDVCQHAMMLPVLTHHIRYHQCLMHLDKLIGYTFQDRCLLQLAMTHPSHHLNFGMNPDHARNSLSNCGIRQPKYGDRKVHHMHMRKKGINTLINIMSRLGQDDPTPSRINHNERLEFLGDAVVEFLTSVHLYYLFPSLEEGGLATYRTAIVQNQHLAMLAKKLELDRFMLYAHGPDLCRESDLRHAMANCFEALIGAVYLEGSLEEAKQLFGRLLFNDPDLREVWLNYPLHPLQLQEPNTDRQLIETSPVLQKLTEFEEAIGVIFTHVRLLARAFTLRTVGFNHLTLGHNQRMEFLGDSIMQLVATEYLFIHFPDHHEGHLTLLRSSLVNNRTQAKVAEELGMQEYAITNDKTKRPVALRTKTLADLLESFIAALYIDKDLEYVHTFMNVCFFPRLKEFILNQDWNDPKSQLQQCCLTLRTEGKEPDIPLYKTLQTVGPSHARTYTVAVYFKGERIGCGKGPSIQQAEMGAAMDALEKYNFPQMAHQKRFIERKYRQELKEMRWEREHQEREPDETEDIKK
